In publication doi:10.1101/2020.10.06.327809 (bioRxiv, 2020):
Results are given in words; binding and its absence hold for the method and conditions named. Binding seen in cells or lysates may run through a third protein. Here binding means that the protein was enriched with, or labelled near, the bait; the list need not be complete. A no says only that the protein was not detected with the bait. Tags and fused reporters may be left off the sequences shown.

B1: archaeosortase A (ArtA) of Haloferax volcanii (protein, UniProt D4GUZ4 1-303)
chain: MPGLLSDILAWVVIGTFVAGAVANGRDRELGRRVMTAAWVLFALFWLQLIPHFTLVHKSYIEGLLTIAAVPASLYAGWLLYNGRDTLFVLSRAVAAMGVVYLPFETIPAFTLLGATVPAPRGVLMETVAAQTRFLIESLGYTPQMIVGDQGYLNTFLWMQGSHRLEISVVLACTGLGSIAIFAGLIAAVDAPMGRKLRGLAIAVPIIYALNLLRTTFIAISVGKQYFHLFVDEVLFLFGSSDPYMVSFFISDRIISQALAVVALVGVTYLVVHEVPELLTVIEDVLYMVTGDEYDLRNELGLD

molecular target: T1, SepF-HA (HA-tagged SepF, Hvo_0392, of Haloferax volcanii strain HTQ236) (Haloferax volcanii) (UniProt D4H018); test: affinity purification with mass spectrometry
T1 sequence: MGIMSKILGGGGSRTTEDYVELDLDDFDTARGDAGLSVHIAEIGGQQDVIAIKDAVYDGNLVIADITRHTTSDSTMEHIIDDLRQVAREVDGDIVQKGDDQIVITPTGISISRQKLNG

binding, no binding:
PssD of Haloferax volcanii, PssA of Haloferax volcanii, B1
